One substance from paper PMC6660665 can be followed below.

The test deals with SleB C-terminal catalytic domain (SleB^Cat 125–253) (B. anthracis). Kind of test: two-hybrid.

Results are given in words; binding and its absence hold for the method and conditions named. Some entries that bind do so weakly or less than the wild type.

As for “SleB C-terminal catalytic domain (SleB^Cat 125–253) (from UniProt A0A6L8PLE1 125-253) (domain or fragment)”, the binding result was “binds”.
